{"source": "PubChem BioAssay AID504764 (Drosophila RNAi Screening Center, 2011)", "aim": "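Genes whose knock-down alters Notch-dependent transcription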 (primary screen)", "cell system": "Drosophila Kc167 cells", "reagent": "long dsRNA against Drosophila genes", "duration": "about 5 days (4 days dsRNA, then 24 h after transfection)", "challenge": "transfection of constitutively active membrane-tethered Notch lacking the extracellular domain, read 24 h later", "read-out": "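Light from a Notch-responsive E(spl)m3 luciferase reporter under active Notch, with control-promoter and no-Notch reporter wells to normalise; raw counts from paired wells a and b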", "reading the numbers": "induced reporter light, run 1, well a and induced reporter light, run 1, well b: higher = more light from the Notch target reporter with active Notch; control promoter light, run 1, well a and control promoter light, run 1, well b: higher = more light from the viral control promoter (cell number, transfection, viability); uninduced reporter light, run 1, well a: higher = more light from the Notch target reporter without active Notch", "hit rule": "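Hit if the duplicate-averaged log2 ratio of induced to control-promoter light gives a plate-wise z beyond ±2, or induced to uninduced beyond ±1.8; weak-control or discordant-duplicate wells dropped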", "calls": "active = modifier hit (raised or lowered Notch signal); inactive = not a hit", "note": "In all, the deposit lists about 22,000 reagents; below is an unselected part of those that have a named target and a result. Over the whole deposit, 403 (1.9%) got an active call. 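Unnormalised raw counts per well; ratio z-scores behind the hit calls and whether each hit raises or lowers signal are not deposited.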 Unmarked entries are inactive. Not stated in the record: the amount of reagent."}
{"target gene": "CG33303 (GeneID 2768916)", "dsRNA": "DRSC02848", "induced reporter light, run 1, well a": 1.45e5, "induced reporter light, run 1, well b": 1.65e5, "control promoter light, run 1, well a": 71250, "control promoter light, run 1, well b": 1.00e5, "uninduced reporter light, run 1, well a": 19465}
{"target gene": "RpL9 (GeneID 34526)", "dsRNA": "DRSC03418", "induced reporter light, run 1, well a": 50970, "induced reporter light, run 1, well b": 54830, "control promoter light, run 1, well a": 32675, "control promoter light, run 1, well b": 52185, "uninduced reporter light, run 1, well a": 6010}
{"target gene": "Gr64f (GeneID 117477)", "dsRNA": "DRSC08447", "induced reporter light, run 1, well a": 1.73e5, "induced reporter light, run 1, well b": 1.55e5, "control promoter light, run 1, well a": 2.22e5, "control promoter light, run 1, well b": 2.15e5, "uninduced reporter light, run 1, well a": 10945}
{"target gene": "CG13747 (GeneID 35907)", "dsRNA": "DRSC06418", "induced reporter light, run 1, well a": 1.81e5, "induced reporter light, run 1, well b": 1.86e5, "control promoter light, run 1, well a": 2.65e5, "control promoter light, run 1, well b": 2.28e5, "uninduced reporter light, run 1, well a": 17625}
{"target gene": "CG3308 (GeneID 42527)", "dsRNA": "DRSC15474", "induced reporter light, run 1, well a": 1.58e5, "induced reporter light, run 1, well b": 1.51e5, "control promoter light, run 1, well a": 1.58e5, "control promoter light, run 1, well b": 1.38e5, "uninduced reporter light, run 1, well a": 14690}
{"target gene": "CG1233 (GeneID 38063)", "dsRNA": "DRSC08269", "induced reporter light, run 1, well a": 89060, "induced reporter light, run 1, well b": 1.01e5, "control promoter light, run 1, well a": 1.82e5, "control promoter light, run 1, well b": 1.54e5, "uninduced reporter light, run 1, well a": 7440}
{"target gene": "CG30389 (GeneID 37410)", "dsRNA": "DRSC04077", "induced reporter light, run 1, well a": 63460, "induced reporter light, run 1, well b": 58495, "control promoter light, run 1, well a": 27860, "control promoter light, run 1, well b": 30355, "uninduced reporter light, run 1, well a": 5225}
{"target gene": "CG30389 (GeneID 37410)", "dsRNA": "DRSC04452", "induced reporter light, run 1, well a": 54840, "induced reporter light, run 1, well b": 40985, "control promoter light, run 1, well a": 42695, "control promoter light, run 1, well b": 42810, "uninduced reporter light, run 1, well a": 2610}
{"target gene": "wry (GeneID 33361)", "dsRNA": "DRSC00352", "induced reporter light, run 1, well a": 1.44e5, "induced reporter light, run 1, well b": 1.55e5, "control promoter light, run 1, well a": 1.31e5, "control promoter light, run 1, well b": 1.05e5, "uninduced reporter light, run 1, well a": 11160}
{"target gene": "wry (GeneID 33361)", "dsRNA": "DRSC00456", "induced reporter light, run 1, well a": 1.57e5, "induced reporter light, run 1, well b": 1.49e5, "control promoter light, run 1, well a": 1.39e5, "control promoter light, run 1, well b": 1.23e5, "uninduced reporter light, run 1, well a": 10770}
{"target gene": "hpo (GeneID 37247)", "dsRNA": "DRSC06065", "induced reporter light, run 1, well a": 1.03e5, "induced reporter light, run 1, well b": 1.01e5, "control promoter light, run 1, well a": 2.02e5, "control promoter light, run 1, well b": 2.28e5, "uninduced reporter light, run 1, well a": 8330}
{"target gene": "qkr58E-2 (GeneID 37562)", "dsRNA": "DRSC04710", "induced reporter light, run 1, well a": 1.65e5, "induced reporter light, run 1, well b": 1.81e5, "control promoter light, run 1, well a": 1.57e5, "control promoter light, run 1, well b": 1.66e5, "uninduced reporter light, run 1, well a": 13388}
{"target gene": "CG31759 (GeneID 326158)", "dsRNA": "DRSC01230", "induced reporter light, run 1, well a": 1.41e5, "induced reporter light, run 1, well b": 1.42e5, "control promoter light, run 1, well a": 1.85e5, "control promoter light, run 1, well b": 1.83e5, "uninduced reporter light, run 1, well a": 9395}
{"target gene": "PGAP1 (GeneID 31487)", "dsRNA": "DRSC18286", "induced reporter light, run 1, well a": 2.37e5, "induced reporter light, run 1, well b": 1.91e5, "control promoter light, run 1, well a": 2.42e5, "control promoter light, run 1, well b": 2.28e5, "uninduced reporter light, run 1, well a": 10905}
{"target gene": "CG7148 (GeneID 40432)", "dsRNA": "DRSC11802", "induced reporter light, run 1, well a": 1.14e5, "induced reporter light, run 1, well b": 1.04e5, "control promoter light, run 1, well a": 76315, "control promoter light, run 1, well b": 86320, "uninduced reporter light, run 1, well a": 8855}
{"target gene": "COX5A (GeneID 41432)", "dsRNA": "DRSC16611", "induced reporter light, run 1, well a": 90680, "induced reporter light, run 1, well b": 1.01e5, "control promoter light, run 1, well a": 1.02e5, "control promoter light, run 1, well b": 86385, "uninduced reporter light, run 1, well a": 9440}
{"target gene": "CG14362 (GeneID 41695)", "dsRNA": "DRSC14824", "induced reporter light, run 1, well a": 2.62e5, "induced reporter light, run 1, well b": 2.35e5, "control promoter light, run 1, well a": 2.30e5, "control promoter light, run 1, well b": 2.14e5, "uninduced reporter light, run 1, well a": 19510}
{"target gene": "Pif1 (GeneID 33567)", "dsRNA": "DRSC00582", "induced reporter light, run 1, well a": 1.96e5, "induced reporter light, run 1, well b": 1.83e5, "control promoter light, run 1, well a": 1.66e5, "control promoter light, run 1, well b": 1.80e5, "uninduced reporter light, run 1, well a": 16745}

A portion taken from the entries so far, for reference:
{"target gene": "Gr64f (GeneID 117477)", "dsRNA": "DRSC08447", "induced reporter light, run 1, well a": 1.73e5, "induced reporter light, run 1, well b": 1.55e5, "control promoter light, run 1, well a": 2.22e5, "control promoter light, run 1, well b": 2.15e5, "uninduced reporter light, run 1, well a": 10945}
{"target gene": "CG13747 (GeneID 35907)", "dsRNA": "DRSC06418", "induced reporter light, run 1, well a": 1.81e5, "induced reporter light, run 1, well b": 1.86e5, "control promoter light, run 1, well a": 2.65e5, "control promoter light, run 1, well b": 2.28e5, "uninduced reporter light, run 1, well a": 17625}
{"target gene": "CG3308 (GeneID 42527)", "dsRNA": "DRSC15474", "induced reporter light, run 1, well a": 1.58e5, "induced reporter light, run 1, well b": 1.51e5, "control promoter light, run 1, well a": 1.58e5, "control promoter light, run 1, well b": 1.38e5, "uninduced reporter light, run 1, well a": 14690}
